Results published in PubChem BioAssay AID493014 (National Center for Advancing Translational Sciences (NCATS), 2011).
“And” between values parts separate entries of the source, which are not always exact repeats. Equal values may be shown once. The list shows a part of the results. These are further read-outs of the screen, such as a control signal, another cell line or another target. No call is given for them. Most of these compounds were active or inconclusive in the main read-out, so they are no random draw. Words in brackets tell the shape of the fitted curve; partial curves, single points and poor fits give uncertain potencies.

Experiment: qHTS Assay to Find Inhibitors of Chronic Active B-Cell Receptor Signaling
Conditions: ABC-DLBCL IkBa-CBG/CBR reporter, luminescence ratio (green luciferase fused to IkBa over red control in TMD8 lymphoma cells), 4 h
Outline: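 Compounds up to 46 uM were incubated four hours with TMD8 cells whose green CBG68 luciferase is fused to IkappaBalpha; red CBR luminescence normalised the signal, and concentration-effect curves were fitted to fusion, red and ratio data.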

[1] = measured here: CBR red luminescence, cell number
[2] = measured here: IkBa-CBG green luminescence

O=C(c1cn(-c2ccccc2)nc1-c1ccccc1)N1CCN(c2ccccn2)CC1
AC50 [1]: 22.4 µM [falling, partial curve, poor fit]

COc1ccccc1-c1cc(C(F)(F)F)nc(S(=O)(=O)CCCC(=O)NC(C)C)n1
AC50 [1]: 0.316 µM [falling, full curve, poor fit]

CCn1nc(C)c(CNC(=O)CCc2nnc(Cc3c[nH]c4ccccc34)o2)c1C
AC50 [1]: 11.2 µM [rising, single point]

CCOc1cc(C(=S)N2CCC(O)CC2)ccc1OS(=O)(=O)c1ccc(Br)cc1
AC50 [1]: 5.17 µM [falling, partial curve]

O=C(O)C1CCC(Cn2c(SCc3cc(=O)n4ccccc4n3)nc3ccsc3c2=O)CC1 (stereo not given)
AC50 [1]: 0.501 µM [rising, partial curve, poor fit]

COC(=O)c1cc(C(=O)NCCC(C)C)cc([N+](=O)[O-])c1
AC50 [2]: 11.2 µM [rising, partial curve, poor fit]

O=C(NN1C(=O)NC2(CCCCC2)C1=O)c1ccc(-c2ccc(Cl)cc2)o1
AC50 [1]: 20.6 µM [falling, single point]

CC(=O)OC[C@H]1O[C@H](CCO/N=C(\C)CCN2CCCc3nc(C)c(C)cc32)C=C[C@@H]1OC(C)=O
AC50 [1]: 7.31 µM [rising, partial curve]

O=C(N/N=C/c1cccnc1)c1ccccc1OCc1ccc(Br)cc1
AC50 [1]: 0.501 µM [falling, full curve, poor fit]

O=C(NCc1cccs1)c1cc2c(s1)-c1ccccc1OC2
AC50 [1]: 13 µM [falling, partial curve] | AC50 [2]: 7.31 µM [rising, partial curve, poor fit]

O=C(Nc1ccnc(-c2ccncc2)n1)c1cccs1
AC50 [1]: 20 µM [rising, single point]

NS(=O)(=O)c1cccc(NC(=O)COC(=O)c2cc(-c3ccc(Cl)cc3)nc3ccccc23)c1
AC50 [1]: 16.4 µM [falling, single point]

O=C(NNC(=S)Nc1ccccc1)C1CCCCC1
AC50 [1]: 12.6 µM [falling, partial curve, poor fit]

O=C(Nc1ccc(Cl)c(Cl)c1)N(CCCN1CCOCC1)Cc1cccs1
AC50 [1]: 16.4 µM [falling, single point]

CC(C)OCCCNc1ncc2c(n1)CC(c1ccccc1)CC2=O (stereo not given)
AC50 [1]: 22.4 µM [falling, single point]

COc1ccc(C(=O)c2sc(Nc3ccccc3)nc2N)cc1OC
AC50 [1]: 11.2 µM [falling, single point]

COc1ccccc1NC(=O)C1CCCN(c2nc(C)cc(C)n2)C1 (stereo not given)
AC50 [1]: 5.8 µM [rising, full curve]

CC(=O)C1=C(O)C(=O)N(C)C1c1ccccc1[N+](=O)[O-] (stereo not given)
AC50 [1]: 10 µM [rising, partial curve]

COC(=O)c1ccc(NC(=S)NC(=O)c2cc(-c3ccccc3)nc3ccccc23)cc1
AC50 [1]: 7.31 µM [rising, partial curve, poor fit]

O=C(c1ccc(Cl)cc1)N1CCC(O)(CSc2ccc(Cl)cc2Cl)CC1
AC50 [1]: 20.6 µM [falling, single point] | AC50 [2]: 25.9 µM [rising, single point]

COc1ccc2c(c1)C(=C(C#N)C#N)C(=O)N2CCc1ccccc1
AC50 [1]: 0.562 µM [falling, full curve, poor fit]

CNc1nnc(-c2cc3ccccc3oc2=O)s1
AC50 [1]: 2.82 µM [falling, full curve]

COC(=O)c1cc(O)cc(OC)c1Oc1cc(C)cc(O)c1C(=O)O
AC50 [1]: 10 µM [falling, partial curve]

O=C1CC(N2CCN(c3nc4ccccc4s3)CC2)C(=O)N1c1ccc(F)cc1 (stereo not given)
AC50 [1]: 29.1 µM [rising, single point]

N#Cc1c(NC(=O)CN2CCOCC2)oc(-c2ccccc2)c1-c1ccccc1
AC50 [1]: 23.1 µM [falling, partial curve, poor fit]

Cc1csc(NC(=O)CSc2nnc(-c3ccoc3C)n2CCc2ccccc2)n1
AC50 [1]: 22.4 µM [falling, single point]

COc1ccc(C(=O)On2c(-c3ccc(Br)cc3)nc3ccccc3c2=O)cc1
AC50 [1]: 16.4 µM [falling, single point]

CCC1CCc2sc(C(=O)NCc3ccccn3)cc2C1 (stereo not given)
AC50 [1]: 0.794 µM [rising, full curve, poor fit]

O=C(O)COc1ccc(/C=N/NC(=O)c2ccc(-c3csc(Nc4ccc(Cl)cc4)n3)cc2)cc1
AC50 [1]: 2.51 µM [falling, partial curve, poor fit]

COc1ccc(C(=O)N2CCc3cc(OC)c(OC)cc3C2c2ccc(OC)c(OC)c2)cc1 (stereo not given)
AC50 [1]: 3.16 µM [rising, full curve, poor fit] | AC50 [2]: 14.1 µM [falling, partial curve, poor fit]

CCOC(=O)C1CCCN(C(=O)c2ccc3[nH]c4c(c3c2)CC(C)CC4)C1 (stereo not given)
AC50 [1]: 0.58 µM [falling, full curve, poor fit]

CC(C)(C)OC(=O)C[C@H]1C/C=C\C[C@@H](CC(=O)N(CCO)Cc2ccccc2)C(=O)N2CCC[C@H]2COC1=O
AC50 [1]: 23.1 µM [rising, partial curve, poor fit]

Cc1cccc(CNc2ncnc3ccc(-c4ccc5c(c4)OCCO5)cc23)c1
AC50 [1]: 16.4 µM [falling, partial curve, poor fit] and 29.1 µM [falling, single point]

CCOC(=O)c1csc(N/N=C2\CCc3ccccc32)n1
AC50 [1]: 1 µM [rising, partial curve]

O=C(N/N=C/c1c[nH]c2ccccc12)c1cc(Br)ccc1O
AC50 [1]: 0.891 µM [falling, full curve, poor fit]

N#Cc1ccc(C(=O)Nc2cccc(S(=O)(=O)NC3=NCCC3)c2)cc1
AC50 [1]: 2.06 µM [falling, partial curve, poor fit]

Cc1cc(C)cc(OCC(=O)N2CCc3ccccc3C2)c1
AC50 [1]: 11.2 µM [rising, partial curve]

CCCn1nnc(NC(=O)c2cc(Br)ccc2OC)n1
AC50 [1]: 0.231 µM [rising, full curve, poor fit]

O=C(Nc1cccc2cccnc12)c1cc(F)c(F)cc1Cl
AC50 [1]: 12.6 µM [rising, partial curve]

CCc1ccc(-c2cc(C(=O)N/N=C/c3ccccn3)[nH]n2)cc1
AC50 [1]: 22.4 µM [falling, partial curve, poor fit]

Cc1nc(-c2cccc(S(=O)(=O)N3CCC(C(=O)NCc4ccccc4)CC3)c2)no1
AC50 [1]: 2.82 µM [rising, partial curve, poor fit]

O=[N+]([O-])c1ccc(Sc2cccc3cccnc23)c([N+](=O)[O-])c1
AC50 [1]: 32.6 µM [falling, single point]

COc1cccc(-n2cc(CNCc3c(C(=O)N(C)C)nc4ccc(Cl)cn34)cn2)c1
AC50 [1]: 4.47 µM [rising, full curve, poor fit] | AC50 [2]: 2.51 µM [rising, partial curve, poor fit]

CC(Cc1cccnc1)NC(=O)c1ccccc1OC1CCN(S(C)(=O)=O)CC1 (stereo not given)
AC50 [1]: 11.2 µM [rising, partial curve, poor fit]

COc1cccc(OCC(=O)Nc2ccc(OC)c(OC)c2)c1
AC50 [1]: 23.1 µM [falling, partial curve] | AC50 [2]: 20.6 µM [rising, partial curve, poor fit]

Cc1ccc(C(C(=O)NCc2ccco2)N(Cc2ccco2)C(=O)CNC(=O)c2ccco2)cc1 (stereo not given)
AC50 [1]: 35.5 µM [rising, single point]

FC(F)(F)c1nnc(-c2ccccc2)nc1Oc1ccccc1
AC50 [1]: 25.9 µM [falling, single point]

CSc1c(SCc2ccccc2)cnn(Cc2ccccc2)c1=O
AC50 [1]: 2.91 µM [rising, partial curve]

COc1ccc2oc(C(=O)N(Cc3ccco3)Cc3cccs3)c(C)c2c1
AC50 [1]: 25.9 µM [rising, single point]

Cc1onc(-c2c(Cl)cccc2Cl)c1NC(=O)N(C)N
AC50 [1]: 1.58 µM [rising, full curve, poor fit]

O=C1CC2(CCN(C(=O)C3CC(=O)N(c4ccc(F)cc4)C3)CC2)Oc2ccccc21 (stereo not given)
AC50 [1]: 0.82 µM [falling, full curve, poor fit]

COc1ccc(CNC(=O)Cn2cc(C(F)(F)F)ccc2=O)cc1
AC50 [1]: 9.2 µM [rising, partial curve, poor fit]

CCOC(=O)c1cnn(-c2ccccc2)c1NC(=O)CN1CCOCC1
AC50 [1]: 35.5 µM [rising, single point]

O=C1NC(=S)N/C1=C/c1ccc2c(c1)OCO2
AC50 [1]: 0.447 µM [falling, full curve]

c1ccc(Cn2c(CNc3nc4ccccc4n3CCN3CCOCC3)nc3ccccc32)cc1
AC50 [1]: 35.5 µM [falling, partial curve, poor fit]

COC(=O)C1=C(C)N(Cc2ccccc2)C(=NCc2ccccc2)N[C@H]1c1cccc(C(F)(F)F)c1
AC50 [1]: 13 µM [falling, single point]

O=C(COc1ccccc1)Nc1nccs1
AC50 [1]: 20.6 µM [falling, partial curve]

O=C(Nc1ccc2oc(-c3ccccc3)nc2c1)c1ccco1
AC50 [1]: 0.291 µM [rising, full curve, poor fit]

O=C(CCN1CCC(c2cccs2)=N1)c1cccs1
AC50 [1]: 35.5 µM [falling, single point]

COc1ccc(NC(=O)c2cccc(N3C(=O)C4C5CCC(C5)C4C3=O)c2)cc1 (stereo not given)
AC50 [1]: 12.6 µM [falling, partial curve, poor fit]
